The test deals with GST-Rho–binding domain of Rhotekin (UniProt Q8C6B2). In words: pull-down.

Data on one substance can be found in publication doi:10.1101/2023.12.15.571360.

Results are given in words; binding and its absence hold for the method and conditions named. Binding seen in cells or lysates may run through a third protein. Binding can be weak; no strength is given.

Turning to RhoA (from UniProt Q9QUI0 1-193), the binding entry is “binds”.
